US20140323488A1, “DISUBSTITUTED TRIAZINE DIMERS FOR TREATMENT AND/OR PREVENTION OF INFECTIOUS DISEASES” (Universiteit Antwerpen, priority 2011, published 2014)
Some results were stated once for a whole list of compounds, not compound by compound.

Legend:
[1] = system: Trypanosoma b. brucei Squib 427; test: In vitro anti-Trypanosoma brucei brucei activity; assay type: cell-based; conditions: range over dimers T5, T6, T11, T12
Experimental: In Vitro Anti-Trypanosoma brucei brucei Activity:
After incubation in a humidified atmosphere (37° C., 5% CO2) for 72 h, resazurin was added for another 24 h and parasite growth was assessed fluorimetrically (λex 550 nm, λem 590 nm). […] Suramin was included as reference drug.

[2] = system: T. rhodesiense (strain STIB-900); test: In vitro anti-Trypanosoma brucei rhodesiense activity; assay type: cell-based; conditions: range over dimers T5, T6, T11, T12
Experimental: In Vitro Anti-Trypanosoma brucei rhodesiense Activity
T. rhodesiense (strain STIB-900) was maintained in HMI-9-medium, supplemented with 10% heat-inactivated FBS. Assays were performed in 96-well microtiter plates, each well containing 10 μL of the extract dilution together with 190 μL of the parasite suspension (2×10^4 parasites/mL). After incubation in a humidified atmosphere (37° C., 5% CO2) for 72 h, resazurin was added for another 6 h and parasite growth was assessed fluorimetrically (λex 550 nm, λem 590 nm). […] Suramin was included as reference drug.

Cc1cc(C)c(Nc2nc(Nc3ccc(C#N)cc3)nc(Nc3ccc(Nc4nc(Nc5ccc(C#N)cc5)nc(Nc5c(C)cc(C)cc5C)n4)cc3)n2)c(C)c1 [T12, 4,4′-((6,6′-(1,4-phenylenebis(azanediyl))bis(4-(mesitylamino)-1,3,5-triazine-6,2-diyl))bis(azanediyl))dibenzonitrile]
fold increase in T. brucei activity in comparison with monomer I5 [1]: 10-70 fold
fold increase in T. rhodesiense activity in comparison with monomer I5 [2]: 15-125 fold
